# Experimental data: PubChem BioAssay AID1259425 (University of Nebraska Medical Center, 2018)
# Assay: 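Find knockdowns that reproduce the gene expression pattern seen when KSR1 is lost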 (primary screen)
# Cells: HCT116 human colon cancer cells
# Knock-down reagent: siRNA pool against human genes, 50 nM siRNA
# Read-out: 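mRNA of six signature genes measured together by branched-DNA assay after 50 nM siRNA pool, blank removed, divided by geometric mean of two housekeeping genes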
# Direction: BNIP3L mRNA: higher = more BNIP3L transcript after knockdown; NDRG1 mRNA: higher = more NDRG1 transcript after knockdown; BNIP3 mRNA: higher = more BNIP3 transcript after knockdown; ALDOC mRNA: higher = more ALDOC transcript after knockdown
# The deposit covers about 14,000 reagents; this is an unselected part. Further read-outs or replicates are left out here. Not stated in the record: the time to read-out.
gene symbol,"BNIP3L mRNA, set 1","NDRG1 mRNA, set 1","BNIP3 mRNA, set 1","ALDOC mRNA, set 1"
ACP3,0.0543,0.144,0.245,0.0259
PANK3,0.135,0.082,0.427,0.0132
CDK5RAP3,0.405,0.811,0.599,0.0136
TMEM94,0.121,0.406,0.364,0.0502
PAQR3,0.12,0.134,0.342,0.0287
MT-ATP6,0.0813,0.186,0.468,0.0418
NDUFA5,0.108,0.229,0.305,0.0245
KCNH7,0.0879,0.0516,0.213,0.0157
ISLR2,0.0903,0.0795,0.346,0.0282
CWC25,0.123,0.318,0.314,0.022
SPATA6L,0.233,0.466,0.269,0.0397
MGAM,0.151,0.177,0.349,0.00986
ISG20L2,0.136,0.287,0.268,0.0349
ADGRE1,0.116,0.129,0.272,0.0308
PCSK5,0.28,0.598,0.458,0.118
DNMBP,0.0791,0.279,0.259,0.0298
ITCH,0.0688,0.228,0.207,0.0141
MRPL18,0.0962,0.161,0.312,0.0215
CELA3A,0.0944,0.234,0.399,0.0232
SLC39A10,0.131,0.141,0.295,0.0198
TAPBP,0.0684,0.362,0.322,0.0452
MYH2,0.139,0.235,0.289,0.0287
SLC7A9,0.053,0.252,0.405,0.00633
ANKS1A,0.103,0.15,0.299,0.0211
PHYHIPL,0.141,0.182,0.303,0.0613
ADAMTS19,0.081,0.205,0.282,0.0238
APOF,0.255,0.0805,0.344,0.0594
CDH1,0.123,0.103,0.231,0.00931
NCBP3,0.0977,0.487,0.241,0.01
GJA8,0.125,0.139,0.218,0.0087
CLPX,0.129,0.139,0.33,0.0439
JUP,0.0678,0.072,0.179,0.0137
PROK2,0.0701,0.0352,0.276,0.00766
PCDHA2,0.105,0.22,0.262,0.011
